Test results reported in publication PMC9740379.
These are yes or no findings as the source states them, for the method shown. Binding seen in cells or lysates may run through a third protein. Some binding calls cover weakened binding; strength is not graded here. Where a sequence is shown, tags or fusion partners need not be part of it.

T1: CD229 (signaling lymphocytic activation molecule family 3), FLAG-tagged, overexpressed in MM cells (human) (UniProt Q9HBG7)
T1 sequence: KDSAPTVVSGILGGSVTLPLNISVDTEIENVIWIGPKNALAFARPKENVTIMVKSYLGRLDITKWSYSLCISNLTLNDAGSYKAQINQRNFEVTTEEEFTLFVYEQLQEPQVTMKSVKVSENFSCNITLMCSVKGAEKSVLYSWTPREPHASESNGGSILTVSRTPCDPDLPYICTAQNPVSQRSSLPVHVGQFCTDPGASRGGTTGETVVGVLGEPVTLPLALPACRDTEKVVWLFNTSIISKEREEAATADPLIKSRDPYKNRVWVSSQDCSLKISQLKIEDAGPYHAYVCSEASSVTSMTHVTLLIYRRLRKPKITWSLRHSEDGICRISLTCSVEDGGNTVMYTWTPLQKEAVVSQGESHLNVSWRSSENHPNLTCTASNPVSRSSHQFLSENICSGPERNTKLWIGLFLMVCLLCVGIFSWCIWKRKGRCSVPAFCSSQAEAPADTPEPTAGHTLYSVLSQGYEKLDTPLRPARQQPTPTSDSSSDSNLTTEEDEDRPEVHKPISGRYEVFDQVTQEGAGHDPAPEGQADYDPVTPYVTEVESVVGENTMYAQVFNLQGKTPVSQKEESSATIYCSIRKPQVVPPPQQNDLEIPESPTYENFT

T2: RAS Protein Activator Like 3 (RASAL3) (human (endogenous in MM cell lines ARP1, CAG)) (UniProt Q86YV0)
T2 sequence: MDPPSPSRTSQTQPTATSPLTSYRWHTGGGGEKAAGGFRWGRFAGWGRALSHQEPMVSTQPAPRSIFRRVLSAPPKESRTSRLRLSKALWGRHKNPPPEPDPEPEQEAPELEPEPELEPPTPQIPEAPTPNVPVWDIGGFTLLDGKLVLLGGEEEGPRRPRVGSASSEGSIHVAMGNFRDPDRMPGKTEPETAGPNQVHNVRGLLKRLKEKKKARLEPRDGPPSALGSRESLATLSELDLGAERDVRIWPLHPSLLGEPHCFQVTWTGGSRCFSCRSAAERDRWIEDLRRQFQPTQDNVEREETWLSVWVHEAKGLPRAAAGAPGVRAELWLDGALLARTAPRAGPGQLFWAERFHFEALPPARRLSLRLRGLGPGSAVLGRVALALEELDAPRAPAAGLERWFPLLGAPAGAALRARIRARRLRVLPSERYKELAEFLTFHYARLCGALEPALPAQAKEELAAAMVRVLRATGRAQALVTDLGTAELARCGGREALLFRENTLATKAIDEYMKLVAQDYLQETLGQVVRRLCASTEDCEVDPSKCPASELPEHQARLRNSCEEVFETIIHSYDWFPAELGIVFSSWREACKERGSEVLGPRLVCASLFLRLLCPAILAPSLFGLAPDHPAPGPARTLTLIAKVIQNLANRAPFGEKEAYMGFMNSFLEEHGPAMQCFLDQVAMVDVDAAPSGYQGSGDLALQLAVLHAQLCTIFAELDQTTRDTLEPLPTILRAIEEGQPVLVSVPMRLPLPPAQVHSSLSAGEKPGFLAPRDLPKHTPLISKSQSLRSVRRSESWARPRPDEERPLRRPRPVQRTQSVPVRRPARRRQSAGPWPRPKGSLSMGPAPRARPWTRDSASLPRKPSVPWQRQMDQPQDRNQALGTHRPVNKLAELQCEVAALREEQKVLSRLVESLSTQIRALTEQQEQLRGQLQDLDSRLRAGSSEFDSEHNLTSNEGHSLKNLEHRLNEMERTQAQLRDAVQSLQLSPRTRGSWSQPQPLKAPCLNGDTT


How the values were obtained:
[1] = molecular target: T1, CD229 (signaling lymphocytic activation molecule family 3), FLAG-tagged, overexpressed in MM cells (human); assay: co-IP; Pierce Direct Magnetic IP/Co-IP kit; IP with FLAG antibody (for FLAG-CD229) or with RASAL3 antibody from CD229-OE MM cells, IgG as negative control, Western blot; also after Dasatinib treatment of the cells (interaction called impaired / reduced)
[2] = molecular target: T2, RAS Protein Activator Like 3 (RASAL3) (human (endogenous in MM cell lines ARP1, CAG)); assay: as above

| Binder | binding [1] | binding [2] |
| --- | --- | --- |
| RAS Protein Activator Like 3 (RASAL3) (protein, UniProt Q86YV0 1-1011) MDPPSPSRTSQTQPTATSPLTSYRWHTGGGGEKAAGGFRWGRFAGWGRALSHQEPMVSTQPAPRSIFRRVLSAPPKESRTSRLRLSKALWGRHKNPPPEPDPEPEQEAPELEPEPELEPPTPQIPEAPTPNVPVWDIGGFTLLDGKLVLLGGEEEGPRRPRVGSASSEGSIHVAMGNFRDPDRMPGKTEPETAGPNQVHNVRGLLKRLKEKKKARLEPRDGPPSALGSRESLATLSELDLGAERDVRIWPLHPSLLGEPHCFQVTWTGGSRCFSCRSAAERDRWIEDLRRQFQPTQDNVEREETWLSVWVHEAKGLPRAAAGAPGVRAELWLDGALLARTAPRAGPGQLFWAERFHFEALPPARRLSLRLRGLGPGSAVLGRVALALEELDAPRAPAAGLERWFPLLGAPAGAALRARIRARRLRVLPSERYKELAEFLTFHYARLCGALEPALPAQAKEELAAAMVRVLRATGRAQALVTDLGTAELARCGGREALLFRENTLATKAIDEYMKLVAQDYLQETLGQVVRRLCASTEDCEVDPSKCPASELPEHQARLRNSCEEVFETIIHSYDWFPAELGIVFSSWREACKERGSEVLGPRLVCASLFLRLLCPAILAPSLFGLAPDHPAPGPARTLTLIAKVIQNLANRAPFGEKEAYMGFMNSFLEEHGPAMQCFLDQVAMVDVDAAPSGYQGSGDLALQLAVLHAQLCTIFAELDQTTRDTLEPLPTILRAIEEGQPVLVSVPMRLPLPPAQVHSSLSAGEKPGFLAPRDLPKHTPLISKSQSLRSVRRSESWARPRPDEERPLRRPRPVQRTQSVPVRRPARRRQSAGPWPRPKGSLSMGPAPRARPWTRDSASLPRKPSVPWQRQMDQPQDRNQALGTHRPVNKLAELQCEVAALREEQKVLSRLVESLSTQIRALTEQQEQLRGQLQDLDSRLRAGSSEFDSEHNLTSNEGHSLKNLEHRLNEMERTQAQLRDAVQSLQLSPRTRGSWSQPQPLKAPCLNGDTT | binds |  |
| CD229 (signaling lymphocytic activation molecule family 3), FLAG-tagged, overexpressed in MM cells (receptor, UniProt Q9HBG7 48-655) KDSAPTVVSGILGGSVTLPLNISVDTEIENVIWIGPKNALAFARPKENVTIMVKSYLGRLDITKWSYSLCISNLTLNDAGSYKAQINQRNFEVTTEEEFTLFVYEQLQEPQVTMKSVKVSENFSCNITLMCSVKGAEKSVLYSWTPREPHASESNGGSILTVSRTPCDPDLPYICTAQNPVSQRSSLPVHVGQFCTDPGASRGGTTGETVVGVLGEPVTLPLALPACRDTEKVVWLFNTSIISKEREEAATADPLIKSRDPYKNRVWVSSQDCSLKISQLKIEDAGPYHAYVCSEASSVTSMTHVTLLIYRRLRKPKITWSLRHSEDGICRISLTCSVEDGGNTVMYTWTPLQKEAVVSQGESHLNVSWRSSENHPNLTCTASNPVSRSSHQFLSENICSGPERNTKLWIGLFLMVCLLCVGIFSWCIWKRKGRCSVPAFCSSQAEAPADTPEPTAGHTLYSVLSQGYEKLDTPLRPARQQPTPTSDSSSDSNLTTEEDEDRPEVHKPISGRYEVFDQVTQEGAGHDPAPEGQADYDPVTPYVTEVESVVGENTMYAQVFNLQGKTPVSQKEESSATIYCSIRKPQVVPPPQQNDLEIPESPTYENFT |  | binds |
